Measured values as given in PubChem BioAssay AID2124 (Sanford-Burnham Center for Chemical Genomics, 2009).
This is one part of the list.

Assay: cell-permeable autofluorescent compounds in GFP channel, dose response, artefact control, imaging, high-content imaging (AID 2124);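 also: cells exposed to compound for 48 hours before fixing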
Details: cells, GFP-channel autofluorescence, at 10 µM

With `CP(=O)(Nc1cccc(Br)c1)Oc1ccccc1` (stereo unspecified) as the compound, how does the cell count read?
Its cell count is 3060 cells.
